PubChem BioAssay AID1259308 – NCATS – 2017
Test: 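Candidate targets for better recombinant protein yield in mammalian cells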 (primary screen). Cells: human HEK293 embryonic kidney cells stably expressing firefly luciferase (HEK-CMV-Luc2-Hygro). Reagents: single siRNA against human genes, 0.8 pmol siRNA per well. Time to read-out: 72 h. Detection: 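Luciferase light (ONE-Glo) measured on one replicate plate set and viability (CellTiter-Glo) on the other, scaled to a negative control siRNA, with robust z-scores and luciferase per cell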. Direction: total luciferase, z-score and total luciferase, % of control: higher = more reporter protein produced; luciferase per cell, z-score: higher = more reporter output per viable cell. Hit rule: 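Active when the median/MAD z-score for overall luciferase is greater than 3; a gene was taken forward for validation with new siRNAs if at least two of its three siRNAs passed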. Calls: active = raised luciferase; inactive = no rise.
Here is an unselected part of about 59,000 deposited reagents. Of all reagents, about 1,510 (2.6%) are marked active. 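Calls use total luciferase alone and ignore viability, so some active siRNAs may act by altering cell number.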 Reagents against one gene are numbered here. Further read-outs or replicates are left out here.

gene knocked down	reagent no.	total luciferase, z-score	total luciferase, % of control	luciferase per cell, z-score	call
PAH (phenylalanine hydroxylase)	1	0.742	96.6	0.187	inactive
PAH (phenylalanine hydroxylase)	2	0.277	87.4	0.0524	inactive
PAH (phenylalanine hydroxylase)	3	-0.74	67.2	-0.856	inactive
F13B (coagulation factor XIII B chain)	1	-0.451	72.9	-0.375	inactive
F13B (coagulation factor XIII B chain)	2	-0.254	76.8	-0.556	inactive
F13B (coagulation factor XIII B chain)	3	0.245	86.8	0.442	inactive
KANK3 (KN motif and ankyrin repeat domains 3)	1	-0.44	73.1	0.091	inactive
KANK3 (KN motif and ankyrin repeat domains 3)	2	0.00396	82	-0.363	inactive
KANK3 (KN motif and ankyrin repeat domains 3)	3	1.65	115	0.973	inactive
ACAA2 (acetyl-CoA acyltransferase 2)	1	-0.931	63.4	-0.96	inactive
ACAA2 (acetyl-CoA acyltransferase 2)	2	-0.229	77.3	0.24	inactive
ACAA2 (acetyl-CoA acyltransferase 2)	3	0.124	84.4	-0.0156	inactive
PIGX (phosphatidylinositol glycan anchor biosynthesis class X)	1	-0.465	72.6	0.178	inactive
PIGX (phosphatidylinositol glycan anchor biosynthesis class X)	2	0.208	86	-0.0408	inactive
PIGX (phosphatidylinositol glycan anchor biosynthesis class X)	3	-1.41	53.8	-1.86	inactive
OR4A5 (olfactory receptor family 4 subfamily A member 5)	1	0.149	84.9	-0.328	inactive
OR4A5 (olfactory receptor family 4 subfamily A member 5)	2	3.23	146	2.23	active
OR4A5 (olfactory receptor family 4 subfamily A member 5)	3	-0.372	74.5	1.29	inactive
BRAP (BRCA1 associated protein)	1	0.0795	83.5	-0.0507	inactive
BRAP (BRCA1 associated protein)	2	0.837	98.5	0.0202	inactive
BRAP (BRCA1 associated protein)	3	0.0386	82.7	-0.333	inactive
NUCB1 (nucleobindin 1)	1	0.0425	82.7	0.207	inactive
NUCB1 (nucleobindin 1)	2	0.832	98.4	0.579	inactive
NUCB1 (nucleobindin 1)	3	-1.06	60.8	-1.08	inactive
GPR87 (G protein-coupled receptor 87)	1	-0.0533	80.8	-0.5	inactive
GPR87 (G protein-coupled receptor 87)	2	0.0865	83.6	0.572	inactive
GPR87 (G protein-coupled receptor 87)	3	-0.436	73.2	-1.02	inactive
KCNK5 (potassium two pore domain channel subfamily K member 5)	1	0.324	88.3	-0.181	inactive
KCNK5 (potassium two pore domain channel subfamily K member 5)	2	-0.989	62.2	-1.14	inactive
KCNK5 (potassium two pore domain channel subfamily K member 5)	3	-0.957	62.9	0.826	inactive
EFCAB9 (EF-hand calcium binding domain 9)	1	1.56	113	1.51	inactive
EFCAB9 (EF-hand calcium binding domain 9)	2	-1.93	43.5	-1.15	inactive
EFCAB9 (EF-hand calcium binding domain 9)	3	1.59	113	0.809	inactive
ZNRF4 (zinc and ring finger 4)	1	-2.58	30.6	-3.31	inactive
ZNRF4 (zinc and ring finger 4)	2	-0.736	67.2	-1.44	inactive
ZNRF4 (zinc and ring finger 4)	3	4.45	170	2.83	active
HMGB2 (high mobility group box 2)	1	1.14	105	2.51	inactive
HMGB2 (high mobility group box 2)	2	-2.4	34.2	-2.4	inactive
HMGB2 (high mobility group box 2)	3	-0.737	67.2	-0.954	inactive

Reformatted: entries from further up.
gene knocked down | reagent no. | total luciferase, z-score | total luciferase, % of control | luciferase per cell, z-score | call
BRAP (BRCA1 associated protein) | 1 | 0.0795 | 83.5 | -0.0507 | inactive
BRAP (BRCA1 associated protein) | 2 | 0.837 | 98.5 | 0.0202 | inactive
BRAP (BRCA1 associated protein) | 3 | 0.0386 | 82.7 | -0.333 | inactive
NUCB1 (nucleobindin 1) | 1 | 0.0425 | 82.7 | 0.207 | inactive
NUCB1 (nucleobindin 1) | 2 | 0.832 | 98.4 | 0.579 | inactive
NUCB1 (nucleobindin 1) | 3 | -1.06 | 60.8 | -1.08 | inactive
GPR87 (G protein-coupled receptor 87) | 1 | -0.0533 | 80.8 | -0.5 | inactive
GPR87 (G protein-coupled receptor 87) | 2 | 0.0865 | 83.6 | 0.572 | inactive
GPR87 (G protein-coupled receptor 87) | 3 | -0.436 | 73.2 | -1.02 | inactive
KCNK5 (potassium two pore domain channel subfamily K member 5) | 1 | 0.324 | 88.3 | -0.181 | inactive

Continued:
gene knocked down	reagent no.	total luciferase, z-score	total luciferase, % of control	luciferase per cell, z-score	call
FANK1 (fibronectin type III and ankyrin repeat domains 1)	1	-0.678	68.4	-0.837	inactive
FANK1 (fibronectin type III and ankyrin repeat domains 1)	2	-0.127	79.4	-1.05	inactive
FANK1 (fibronectin type III and ankyrin repeat domains 1)	3	-0.0971	80	0.065	inactive
ALDH1A1 (aldehyde dehydrogenase 1 family member A1)	1	1.04	103	0.945	inactive
ALDH1A1 (aldehyde dehydrogenase 1 family member A1)	2	1.17	105	1.13	inactive
ALDH1A1 (aldehyde dehydrogenase 1 family member A1)	3	-1.21	57.9	-1.23	inactive
GAS2 (growth arrest specific 2)	1	-0.807	65.8	-0.519	inactive
GAS2 (growth arrest specific 2)	2	0.27	87.3	1.18	inactive
GAS2 (growth arrest specific 2)	3	1.37	109	1.33	inactive
TIRAP (TIR domain containing adaptor protein)	1	0.206	86	-0.392	inactive
TIRAP (TIR domain containing adaptor protein)	2	2.64	134	1.46	inactive
TIRAP (TIR domain containing adaptor protein)	3	0.082	83.5	-0.117	inactive
ANKRD49 (ankyrin repeat domain 49)	1	0.523	92.3	-0.274	inactive
ANKRD49 (ankyrin repeat domain 49)	2	-0.406	73.8	-0.761	inactive
ANKRD49 (ankyrin repeat domain 49)	3	-0.115	79.6	-0.837	inactive
OR10P1 (olfactory receptor family 10 subfamily P member 1)	1	4.64	174	4.35	active
OR10P1 (olfactory receptor family 10 subfamily P member 1)	2	-0.354	74.9	-0.0244	inactive
OR10P1 (olfactory receptor family 10 subfamily P member 1)	3	4.13	164	2.64	active
GORASP1 (golgi reassembly stacking protein 1)	1	-1.92	43.7	-2.05	inactive
GORASP1 (golgi reassembly stacking protein 1)	2	-0.0188	81.5	-0.319	inactive
GORASP1 (golgi reassembly stacking protein 1)	3	-0.311	75.7	-0.8	inactive
KLF14 (KLF transcription factor 14)	1	0.48	91.4	-0.0372	inactive
KLF14 (KLF transcription factor 14)	2	-1.7	48	-1.28	inactive
KLF14 (KLF transcription factor 14)	3	-1.29	56.2	-1.33	inactive
MIB1 (MIB E3 ubiquitin protein ligase 1)	1	0.54	92.6	0.887	inactive
MIB1 (MIB E3 ubiquitin protein ligase 1)	2	1.14	105	0.876	inactive
MIB1 (MIB E3 ubiquitin protein ligase 1)	3	-0.557	70.8	-0.762	inactive
DDX55 (DEAD-box helicase 55)	1	-0.794	66.1	-0.702	inactive
DDX55 (DEAD-box helicase 55)	2	0.563	93.1	0.509	inactive
DDX55 (DEAD-box helicase 55)	3	-0.412	73.7	-1.09	inactive
VEPH1 (ventricular zone expressed PH domain containing 1)	1	-0.698	68	-0.755	inactive
VEPH1 (ventricular zone expressed PH domain containing 1)	2	0.0607	83.1	-0.00852	inactive
VEPH1 (ventricular zone expressed PH domain containing 1)	3	-0.177	78.4	0.466	inactive
AP1M1 (adaptor related protein complex 1 subunit mu 1)	1	1.14	105	0.713	inactive
AP1M1 (adaptor related protein complex 1 subunit mu 1)	2	-0.165	78.6	0.195	inactive
AP1M1 (adaptor related protein complex 1 subunit mu 1)	3	-0.061	80.7	-0.265	inactive
